# No constants are given. Whether binding was seen depends on the method and setting. In cells and extracts the contact can be indirect. A result given as binding can be weak or reduced; the word gives no strength.
# Molecular target: T1, Strep-GlnA1 (Methanosarcina mazei) (UniProt Q8PY99)
# T1 sequence: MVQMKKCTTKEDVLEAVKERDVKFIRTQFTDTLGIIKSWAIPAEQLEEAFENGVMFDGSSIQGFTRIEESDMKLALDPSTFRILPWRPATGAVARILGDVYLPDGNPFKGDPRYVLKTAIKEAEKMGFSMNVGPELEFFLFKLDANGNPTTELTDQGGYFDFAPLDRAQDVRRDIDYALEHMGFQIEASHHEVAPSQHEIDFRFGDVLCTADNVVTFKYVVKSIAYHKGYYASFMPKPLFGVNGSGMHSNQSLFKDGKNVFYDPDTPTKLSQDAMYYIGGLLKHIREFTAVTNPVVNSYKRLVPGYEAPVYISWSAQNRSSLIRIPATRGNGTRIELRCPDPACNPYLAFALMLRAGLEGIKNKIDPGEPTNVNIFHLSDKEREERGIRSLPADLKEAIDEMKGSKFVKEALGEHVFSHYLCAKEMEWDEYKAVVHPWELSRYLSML
# Experiment: pull-down
substance,measurement,value
His6-SUMO-His6-sP26 (Methanosarcina mazei),binding,binds
